Data reported in patent EP4374708A1, “NUTRITIONAL SUPPLEMENT PREPARATION” (Avea Life AG, priority 2022, dated 2024).
Entries after “also recorded” stand apart in the source; their conditions may differ. For at least one compound, name, drawing or mass did not settle the structure.

Tests used:
[1] = tested on: dpy-18(ok162) mutant JK2729; assay: manual lifespan assay in prolyl-4-hydroxylase mutant C. elegans; format: in vivo; details: dpy-18(ok162) mutant without prolyl-4-hydroxylase activity
[2] = tested on: C. elegans; assay: manual lifespan assay in C. elegans; format: in vivo; details: supplementation from young adulthood

## O=C(O)CCC(=O)C(=O)O [alpha-ketoglutarate]
[1]
  lifespan: completely abolished
[2]
  lifespan: increased their lifespan; also recorded: showed an increase in lifespan
